Laboratory results as given in the supplement of paper PMC10735217.
Counter-ions that a name gives are not always drawn. This is one part of the list. This data set is noisy: repeats of one test often differ as much as different tests do.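 The human kidney-derived cells carry a stably integrated construct of eight TEAD-binding elements driving luciferase, read by luminescence in a drug-repurposing library screen. A compound counts as a hit when its signal is more than five robust Z scores above the plate mean.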

System: HEK293A TEAD-LUC reporter
Experiment: TEAD-luciferase reporter activity (YAP activation), robust Z score vs plate; higher = stronger YAP/TEAD activation
Conditions: 24 h

Compound | TEAD-luciferase reporter activity (compound concentration: 200 nM) | TEAD-luciferase reporter activity (compound concentration: 2 uM) | TEAD-luciferase reporter activity (compound concentration: 10 uM)
CN(C)c1cccc(-c2c3c(=O)n(-c4ccccc4Cl)[nH]c3cc(=O)n2C)c1 | inactive: -0.63 | inactive: -1.85 | inactive: -0.474
O=C(c1ccccc1F)N1CCC(N2Cc3ccccc3C2=O)CC1 | inactive: -1.3 |  | inactive: -0.72
N#C/N=C(\NCCc1ccccc1Cl)c1cncc(N)c1 | inactive: -0.922 | inactive: 0.341 | inactive: 1.72
CC[C@]12CCCN3CCc4c(n(c5ccccc45)[C@@](O)(C(=O)OC)C1)[C@@H]32 | inactive: 1.5 | inactive: 1.79 | active: 5.98
C[C@H]1C[C@H]2[C@@H]3CCC4=CC(=O)C=C[C@]4(C)[C@@]3(F)[C@@H](O)C[C@]2(C)[C@@]1(O)C(=O)CO [betamethasone] |  | inactive: 2.83 | 
C[C@H]1C[C@H]2[C@@H]3CCC4=CC(=O)C=C[C@]4(C)[C@@]3(F)[C@@H](O)C[C@]2(C)[C@@]1(O)C(=O)CO |  | inactive: 1.66 | 
C[C@H]1C[C@H]2[C@@H]3CCC4=CC(=O)C=C[C@]4(C)[C@@]3(F)[C@@H](O)C[C@]2(C)[C@@]1(O)C(=O)CO [Betamethasone (Celestone)] | inactive: -1.49 |  | inactive: 3.31
CCCCCCOc1cccc2cc(-c3nnn[nH]3)c(=O)oc12 | inactive: -1.34 | inactive: 0.0946 | inactive: 2.1
c1ccc2ccccc2c1 | inactive: 0.522 | inactive: -0.969 | inactive: -1.55
O=C1Nc2ccc(F)c(F)c2[C@](C#CC2CC2)(C(F)(F)F)N1 | inactive: -1.2 | inactive: 1.34 | inactive: 0.293
O=c1oc(CCN2CCN(c3ccccc3)CC2)c(-c2ccc(Cl)cc2)o1 | inactive: -1.11 | inactive: 0.742 | inactive: -1.72
CO[C@@]1(NC(=O)C(C(=O)[O-])c2ccsc2)C(=O)N2C(C(=O)[O-])C(C)(C)S[C@@H]21 (some centres not stated) | inactive: 1.58 |  | inactive: -0.338
CO[C@@]1(NC(=O)C(C(=O)[O-])c2ccsc2)C(=O)N2C(C(=O)[O-])C(C)(C)S[C@@H]21 (some centres not stated) [Temocillin sodium] |  | inactive: -1.95 | 
COc1ccccc1C(=O)N1CCC2(CC1)NC(=O)c1ccccc1O2 | inactive: -0.942 |  | inactive: 2.19
CN1CCN(C2=Nc3cscc3/C(=C\C#N)c3cscc32)CC1 [tenilapine] | inactive: -1.4 | inactive: 0.312 | active: 5.32
C=CC(=O)Nc1cccc(Oc2nc(Nc3ccc(N4CCN(C)CC4)cc3)nc3ccsc23)c1 [Olmutinib] | inactive: 1.62 |  | inactive: 1.25
C=CC(=O)Nc1cccc(Oc2nc(Nc3ccc(N4CCN(C)CC4)cc3)nc3ccsc23)c1 |  | inactive: -0.395 | 
CC(C)CCNC(=O)[C@@H]1CCCN1C(=O)N(CCC(C)C)CC(=O)NO | inactive: 1.73 | inactive: 1.51 | inactive: 2.69
CC(N)C12CC3CC(CC(C3)C1)C2 (configuration not stated) | inactive: -1.85 |  | inactive: -1.33

Compound | TEAD-luciferase reporter activity (compound concentration: 200 nM) | TEAD-luciferase reporter activity (compound concentration: 2 uM) | TEAD-luciferase reporter activity (compound concentration: 10 uM)
CC(N)C12CC3CC(CC(C3)C1)C2 (configuration not stated) [Rimantadine hydrochloride] |  | inactive: -0.475 | 
CCCCN(CCCC)CCC(O)c1cc(-c2ccc(C(F)(F)F)cc2)nc(-c2ccc(C(F)(F)F)cc2)c1 (configuration not stated) | inactive: -1.2 | inactive: -1.21 | inactive: -0.732
O=C1NC(=O)C(Sc2ccc3ccccc3c2)S1 (configuration not stated) | inactive: 0.172 | inactive: 0.313 | inactive: -0.978
CS(=O)(=O)Nc1cc2c(cc1Oc1ccccc1)C(=O)CC2 | inactive: -0.151 | inactive: 0.209 | inactive: 0.937
NCCc1c[nH]c2ccc(OCC(=O)N[C@@H](Cc3ccc(O)cc3)C(=O)NCC(N)=O)cc12 | inactive: -2.1 | inactive: 0.502 | inactive: 3.43
COc1cc(C(=O)N2CCN(Cc3c(-c4ccccc4)c4cc(Cl)ccc4[nH]c3=O)CC2)cc(OC)c1OC | inactive: -0.263 | inactive: 0.0458 | inactive: 0.519
CN(C)C(=O)c1ccc(S(=O)(=O)c2ccc(NC(=O)[C@@](C)(O)C(F)(F)F)c(Cl)c2)cc1 | inactive: 0.497 | inactive: -0.95 | inactive: 1.34
O=C(Nc1ccc([N+](=O)[O-])cc1Cl)c1cc(Cl)ccc1O [Niclosamide] | inactive: 2.95 | inactive: -3.73 | inactive: -3.25
O=C1OCCN1/N=C/c1ccc([N+](=O)[O-])o1 [Furazolidone] | inactive: -1.03 | inactive: 0.711 | inactive: -2.1
CCC1CN(c2cc3c(cc2F)c(=O)c(C(=O)O)cn3C2CC2)CCN1 (configuration not stated) | inactive: -1.49 | inactive: 1.4 | inactive: -1.06
OC[C@H]1CNC[C@@H](O)[C@@H]1O | inactive: 1.71 | inactive: -0.348 | inactive: 1.38
CC(C)n1c(=O)n(C(=O)N[C@H]2C[C@H]3CC[C@@H](C2)N3C)c2ccccc21 | inactive: -2.36 | inactive: 0.446 | inactive: -0.328
NS(=O)(=O)c1ccc(N2CCCCS2(=O)=O)cc1 [Sulthiame] | inactive: -0.27 | inactive: -2.43 | inactive: -1.64
Nc1c(Cl)cc(C=C2NCCN2)cc1Cl [Nemazoline hydrochloride] | inactive: -1.51 | inactive: 0.282 | inactive: -0.525
C(#CCC1(Cc2ccccc2)c2ccccc2-c2ccccc21)CN1CCCCCC1 | inactive: -1.67 | inactive: -0.117 | inactive: 1.27
CN(C)C1C(=O)C(C(N)=O)C(=O)C2(O)C(=O)C3C(=O)c4c(O)ccc([N+](=O)[O-])c4CC3CC12 (configuration not stated) | inactive: -0.45 | inactive: -1.55 | inactive: -0.594
CCCN(CCCCN1C(=O)CC2(CCCC2)CC1=O)C1COc2cccc(OC)c2C1 (configuration not stated) | inactive: -1.29 | inactive: 0.473 | inactive: 2
CNC(=O)c1cnn(-c2nc(N)c3ncn([C@@H]4O[C@H](CO)[C@@H](O)[C@H]4O)c3n2)c1 [Regadenoson] | inactive: -3.37 | inactive: -0.37 | active: 12.7
CCCC(=O)N1Cc2ccccc2CC2(CCCCN2Cc2ccncc2)C1 (configuration not stated) | inactive: -0.966 |  | inactive: -0.583

Compound | TEAD-luciferase reporter activity (compound concentration: 200 nM) | TEAD-luciferase reporter activity (compound concentration: 2 uM) | TEAD-luciferase reporter activity (compound concentration: 10 uM)
COc1cc(C)c(S(=O)(=O)N[C@@H](CC(=O)OC(C)(C)C)C(=O)NC(Cc2ccc3c(N)nccc3c2)C(=O)N2CCCCC2)c(C)c1C (some centres not stated) | inactive: -1.23 | inactive: 0.317 | inactive: 1.71
C[C@@H]1CN(c2ccc(F)cc2C(F)(F)F)CCN1S(=O)(=O)c1cccc(C(C)(O)C(F)(F)F)c1 (some centres not stated) | inactive: -1.06 | inactive: -0.697 | inactive: 0.558
O=C(c1ccc(F)cc1)C1CCN(CCC2Cc3ccc(F)cc3C2=O)CC1 (configuration not stated) | inactive: -1.25 | inactive: 0.137 | inactive: -0.668
CC(C)(CC(=O)N1CCCC1)NCC(=O)N1C[C@@H](F)C[C@H]1C#N | inactive: -1.62 | inactive: -0.158 | inactive: 2.47
N[C@@H](Cc1c[nH]cn1)C(=O)O [L-Histidine] | inactive: -1.23 | inactive: -0.455 | inactive: 2.25
C[C@H]1CN(C[C@H](Cc2ccccc2)C(=O)NCC(=O)O)CC[C@@]1(C)c1cccc(O)c1 [alvimopan] | inactive: -0.985 | inactive: -0.34 | inactive: 1.33
CCOc1cccc(CN2CCCCC23Cc2ccccc2CNC3=O)c1 (configuration not stated) | inactive: -2.36 |  | inactive: -0.631
NC(=O)C1CCCc2c1[nH]c1ccc(Cl)cc21 (configuration not stated) [selisistat] | inactive: 0.125 | active: 6.11 | inactive: 1.74
Cc1cc(NS(=O)(=O)c2ccc(N)cc2)n(-c2ccccc2)n1 | inactive: -0.68 | inactive: -0.451 | inactive: 0.111
CC(C)(CO)C(O)C(=O)NCCCC(=O)O (configuration not stated) [calcium hopantothenate] | inactive: -2.33 | inactive: 1.24 | inactive: -0.995
CS(=O)(=O)Nc1ccc([N+](=O)[O-])cc1Oc1ccccc1 [nimesulide] | inactive: 0.422 | inactive: -1.72 | inactive: 1.51
O=c1[nH]c2c(O)ccc(CCNCCCS(=O)(=O)CCOCCc3cccc4ccccc34)c2s1 | inactive: -0.788 | inactive: -1.28 | inactive: -0.241
CCC(=O)OCC(=O)[C@@]1(OC(=O)CC)[C@@H](C)C[C@H]2[C@@H]3CCC4=CC(=O)C=C[C@]4(C)[C@@]3(F)[C@@H](O)C[C@@]21C [betamethasone diproprionate] | inactive: -1.29 | inactive: 0.39 | inactive: 2.53
NC(=O)CN1C(=O)CC(c2ccccc2)Sc2ccccc21 (configuration not stated) | inactive: -1.09 | inactive: -0.205 | inactive: 1.65
CC(C)C(=O)N1Cc2ccccc2CC2(CCCCN2Cc2ccncc2)C1 (configuration not stated) | inactive: -0.225 |  | inactive: -0.568
OC[C@@H](O)[C@@H](O[C@@H]1O[C@H](CO)[C@H](O)[C@H](O)[C@H]1O)[C@H](O)[C@@H](O)CO | inactive: -0.326 | inactive: 0.0603 | inactive: -1.35
OCCc1ccc(OCCn2ccnc2)cc1 | inactive: -1.19 | inactive: 1.14 | inactive: 0.595
Cc1ccc(-c2nc3c(nc2-c2ccc(C)cc2)N(CCCCCCC(=O)O)CCC3)cc1 | inactive: -0.265 | inactive: -1.01 | inactive: -0.129
COC(=O)c1ccc(C)c(-c2cccc(NCCNCC(O)c3cccc(Cl)c3)c2)c1 (configuration not stated) | inactive: -1.18 | inactive: -1.26 | inactive: -0.956
